Consider 1 molecule from paper PMC7373190, “Archaeal Chromatin Proteins Cren7 and Sul7d Compact DNA by Bending and Bridging” (mBio, 2020).

In the experiment the target is Cren7 (Sulfolobus islandicus) (UniProt C3MPN0). The experiment can be described thus: cross-linking; 0.5 mg/ml protein in 50 mM HEPES-KOH pH 7.8, 150 mM NaCl, DSS, 1 h at room temperature; trypsin digest, nano-LC-MS/MS, pLink 2.0; only two cross-linked peptides with the same lysine taken as intermolecular; both purified.

No constants are given. Whether binding was seen depends on the method and setting. Some binding calls cover weakened binding; strength is not graded here.

B1: Cren7 (protein, UniProt C3MPN0 8-60)
chain: VKVKTPAGKEAELVPEKVWALAPKGRKGVKIGLFKDPETGKYFRHKLPDDYPI
Turning to B1, the binding result was “binds”.
